Source: PubChem BioAssay AID652243 (Drosophila RNAi Screening Center, 2013)
Aim: 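Fly regulators of androgen-dependent reporter output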 (primary screen). Cells: Drosophila S2R+ cells. Reagents: long dsRNA against Drosophila genes. Duration: 72 h (48 h, then 24 h hormone). Challenge: synthetic androgen R1881 at 10 nM for 24 h. Measured: 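Per-well raw luminescence of the androgen-driven firefly reporter and of the Renilla control, two replicates each, without normalisation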. Scale: firefly reporter light: higher = more light from androgen-responsive reporter; Renilla control light: higher = more constitutive control signal (cell number, transfection). Rule for the call: 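Across duplicate plates, a knock-down whose log firefly/Renilla ratio shifted a set fold down or up from the GFP/LacZ control mean was a hit; the downward cut appears as both 1.5 and 3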. Meaning of the calls: active = hit: reporter lowered or raised; inactive = no hit.
In all, the deposit lists about 24,000 reagents; this is an unselected part of those that have a named target and a result. Over the whole deposit, 246 (1%) got an active call. 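Plates not normalised; calls are printed but the firefly/Renilla ratio behind them is not deposited; fold cut for lowering reported inconsistently.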 Raw values are not corrected between plates. Unmarked entries are inactive. A plus sign joins genes that one reagent is predicted to hit. The record does not give: the amount of reagent.

predicted target,dsRNA,"firefly reporter light, replicate 1","firefly reporter light, replicate 2","Renilla control light, replicate 1","Renilla control light, replicate 2"
Ipp (Inositol polyphosphate 1-phosphatase),DRSC16718,58014,80035,8.86e5,1.45e6
Ipp (Inositol polyphosphate 1-phosphatase),DRSC26058,2.36e5 (active),2.80e5,5.20e5,5.94e5
Rad51D (Rad51 recombinase D),DRSC06840,2.85e5,2.60e5,1.97e6,1.74e6
CG34167,DRSC38911,8.13e5,7.01e5,2.33e6,2.06e6
Jon65Aiii (Jonah 65Aiii),DRSC10649,7.91e5,9.92e5,8.17e5,1.68e6
Jon65Aiii (Jonah 65Aiii),DRSC25428,5.37e5,6.75e5,4.54e5,5.50e5
Nca (Neurocalcin),DRSC11233,2.59e5,2.68e5,2.51e6,2.43e6
CG6660,DRSC16087,84440,68402,4.00e5,3.87e5

The list goes on, starting with the last 2 of the part before.
predicted target,dsRNA,"firefly reporter light, replicate 1","firefly reporter light, replicate 2","Renilla control light, replicate 1","Renilla control light, replicate 2"
Nca (Neurocalcin),DRSC11233,2.59e5,2.68e5,2.51e6,2.43e6
CG6660,DRSC16087,84440,68402,4.00e5,3.87e5
c11.1,DRSC18749,1.73e5,2.20e5,2.31e6,2.04e6
frj (farjavit),DRSC03250,2.54e5,2.49e5,5.09e5,4.71e5
Cpr72Ea (Cuticular protein 72Ea),DRSC10451,42070,31713,3.47e5,2.61e5
xmas-1 (retired record),DRSC20386,2.88e5,3.19e5,3.02e6,1.74e6
xmas-1 (retired record),DRSC24501,2.88e5,4.33e5,8.36e5,5.60e5
CCHa1-R (CCHamide-1 receptor),DRSC06456,69584,1.05e5,1.19e6,1.19e6
CCHa1-R (CCHamide-1 receptor),DRSC06715,1.22e5,1.27e5,2.45e6,2.45e6
CG7294,DRSC03041,1.70e5,1.88e5,1.31e6,1.30e6
CG7294,DRSC25336,1.07e6,1.23e6,1.20e6,1.11e6
Tsen34 + Trl,DRSC10014,2.44e5,2.60e5,2.45e6,1.85e6
Snap24 (Synaptosomal-associated protein 24kDa),DRSC16864,93662,80069,1.51e6,1.75e6
CG32523,DRSC20510,2.02e5,1.50e5,5.88e5,5.23e5
CG6340,DRSC19987,4.59e5,2.16e5,2.25e6,2.36e6
CG6340,DRSC25288,9.18e5,1.18e6,9.11e5,9.77e5
CG13540,DRSC04182,3.15e5,2.38e5,1.94e6,1.33e6
CG31156,DRSC15753,25329,44580,3.24e5,3.48e5
CG31156,DRSC15755,2.75e5,3.31e5,2.71e6,2.82e6
